Results published in the supplement of paper PMC7661543.
The effect of the compound repeats well; differences between the knockouts mostly do not.

Tested on: SKBR3
Test: relative cell number vs DMSO control (72 h) (% of DMSO); higher = less growth inhibition (more cells)
Description: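 QMAP-Seq: a pool of 5 breast cancer cell lines (ZR-75-1, SKBR3, HCC-38, MDA-MB-231, BT-20), each carrying 12 doxycycline-inducible Cas9 sgRNA perturbations (11 knockouts plus non-targeting sgNT), was treated with compounds for 72 h at four 10-fold doses (10 nM-10 uM or 1 nM-1 uM range). Barcodes were amplified and sequenced, and cell number was interpolated from 293T spike-in standard curves. The result is expressed as % of the median of DMSO wells. Two biological replicates.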

Cc1cc2c(F)c(Oc3ncnn4cc(OC[C@@H](C)O)c(C)c34)ccc2[nH]1 [Brivanib]
Details | relative cell number
sgRNA knockout: sgATF3, 10 nM | 89.4
sgRNA knockout: sgATF3, 100 nM | 88.5
sgRNA knockout: sgATF3, 1000 nM | 83.3
sgRNA knockout: sgATF3, 10000 nM | 82.4
sgRNA knockout: sgATF4, 10 nM | 111
sgRNA knockout: sgATF4, 100 nM | 81.8
sgRNA knockout: sgATF4, 1000 nM | 88.7
sgRNA knockout: sgATF4, 10000 nM | 80.97
sgRNA knockout: sgATF6, 10 nM | 92
sgRNA knockout: sgATF6, 100 nM | 83.4
sgRNA knockout: sgATF6, 1000 nM | 107
sgRNA knockout: sgATF6, 10000 nM | 70.8
sgRNA knockout: sgATG7, 10 nM | 108
sgRNA knockout: sgATG7, 100 nM | 89.1
sgRNA knockout: sgATG7, 1000 nM | 110
sgRNA knockout: sgATG7, 10000 nM | 81.8
sgRNA knockout: sgERN1, 10 nM | 78.9
sgRNA knockout: sgERN1, 100 nM | 71.3
sgRNA knockout: sgERN1, 1000 nM | 111
sgRNA knockout: sgERN1, 10000 nM | 66.6
sgRNA knockout: sgHSF1, 10 nM | 95
sgRNA knockout: sgHSF1, 100 nM | 79.1
sgRNA knockout: sgHSF1, 1000 nM | 100
sgRNA knockout: sgHSF1, 10000 nM | 76.5
sgRNA knockout: sgHSF2, 10 nM | 94.2
sgRNA knockout: sgHSF2, 100 nM | 75.9
sgRNA knockout: sgHSF2, 1000 nM | 107
sgRNA knockout: sgHSF2, 10000 nM | 73.1
sgRNA knockout: sgKEAP1, 10 nM | 97.3
sgRNA knockout: sgKEAP1, 100 nM | 79.3
sgRNA knockout: sgKEAP1, 1000 nM | 83.4
sgRNA knockout: sgKEAP1, 10000 nM | 64.5
sgRNA knockout: sgNFE2L2, 10 nM | 99.3
sgRNA knockout: sgNFE2L2, 100 nM | 70.2
sgRNA knockout: sgNFE2L2, 1000 nM | 94.5
sgRNA knockout: sgNFE2L2, 10000 nM | 89.3
sgRNA knockout: sgSLC35F2, 10 nM | 106
sgRNA knockout: sgSLC35F2, 100 nM | 80
sgRNA knockout: sgSLC35F2, 1000 nM | 81.1
sgRNA knockout: sgSLC35F2, 10000 nM | 68.1
sgRNA knockout: sgXBP1, 10 nM | 93.2
sgRNA knockout: sgXBP1, 100 nM | 73.7
sgRNA knockout: sgXBP1, 1000 nM | 113
sgRNA knockout: sgXBP1, 10000 nM | 83

O=C(O)CC[C@H]1CC[C@@](c2cc(F)ccc2F)(S(=O)(=O)c2ccc(Cl)cc2)CC1 [MK0752]
Details | relative cell number
sgRNA knockout: sgATF3, 10 nM | 154
sgRNA knockout: sgATF3, 100 nM | 137
sgRNA knockout: sgATF3, 1000 nM | 99.5
sgRNA knockout: sgATF3, 10000 nM | 119
sgRNA knockout: sgATF4, 10 nM | 146
sgRNA knockout: sgATF4, 100 nM | 105
sgRNA knockout: sgATF4, 1000 nM | 102
sgRNA knockout: sgATF4, 10000 nM | 109
sgRNA knockout: sgATF6, 10 nM | 119
sgRNA knockout: sgATF6, 100 nM | 93.3
sgRNA knockout: sgATF6, 1000 nM | 101
sgRNA knockout: sgATF6, 10000 nM | 98.5
sgRNA knockout: sgATG7, 10 nM | 177
sgRNA knockout: sgATG7, 100 nM | 108.8
sgRNA knockout: sgATG7, 1000 nM | 111
sgRNA knockout: sgATG7, 10000 nM | 140
sgRNA knockout: sgERN1, 10 nM | 143
sgRNA knockout: sgERN1, 100 nM | 110
sgRNA knockout: sgERN1, 1000 nM | 121
sgRNA knockout: sgERN1, 10000 nM | 132
sgRNA knockout: sgHSF1, 10 nM | 139
sgRNA knockout: sgHSF1, 100 nM | 128
sgRNA knockout: sgHSF1, 1000 nM | 96.6
sgRNA knockout: sgHSF1, 10000 nM | 114.4
sgRNA knockout: sgHSF2, 10 nM | 122
sgRNA knockout: sgHSF2, 100 nM | 123
sgRNA knockout: sgHSF2, 1000 nM | 116
sgRNA knockout: sgHSF2, 10000 nM | 117
sgRNA knockout: sgKEAP1, 10 nM | 121
sgRNA knockout: sgKEAP1, 100 nM | 112
sgRNA knockout: sgKEAP1, 1000 nM | 106
sgRNA knockout: sgKEAP1, 10000 nM | 104
sgRNA knockout: sgNFE2L2, 10 nM | 186
sgRNA knockout: sgNFE2L2, 100 nM | 125
sgRNA knockout: sgNFE2L2, 1000 nM | 113
sgRNA knockout: sgNFE2L2, 10000 nM | 131
sgRNA knockout: sgSLC35F2, 10 nM | 150
sgRNA knockout: sgSLC35F2, 100 nM | 124
sgRNA knockout: sgSLC35F2, 1000 nM | 128
sgRNA knockout: sgSLC35F2, 10000 nM | 116
sgRNA knockout: sgXBP1, 10 nM | 142
sgRNA knockout: sgXBP1, 100 nM | 116
sgRNA knockout: sgXBP1, 1000 nM | 135
sgRNA knockout: sgXBP1, 10000 nM | 141

Cn1c(CCCC(=O)O)nc2cc(N(CCCl)CCCl)ccc21 [Bendamustine]
Details | relative cell number
sgRNA knockout: sgATF3, 10 nM | 98.4
sgRNA knockout: sgATF3, 100 nM | 104
sgRNA knockout: sgATF3, 1000 nM | 114
sgRNA knockout: sgATF3, 10000 nM | 129
sgRNA knockout: sgATF4, 10 nM | 93.7
sgRNA knockout: sgATF4, 100 nM | 97
sgRNA knockout: sgATF4, 1000 nM | 100
sgRNA knockout: sgATF4, 10000 nM | 99.1
sgRNA knockout: sgATF6, 10 nM | 71.3
sgRNA knockout: sgATF6, 100 nM | 98.9
sgRNA knockout: sgATF6, 1000 nM | 90.7
sgRNA knockout: sgATF6, 10000 nM | 92.2
sgRNA knockout: sgATG7, 10 nM | 114
sgRNA knockout: sgATG7, 100 nM | 108
sgRNA knockout: sgATG7, 1000 nM | 111
sgRNA knockout: sgATG7, 10000 nM | 130
sgRNA knockout: sgERN1, 10 nM | 98.7
sgRNA knockout: sgERN1, 100 nM | 98.4
sgRNA knockout: sgERN1, 1000 nM | 108
sgRNA knockout: sgERN1, 10000 nM | 124
sgRNA knockout: sgHSF1, 10 nM | 102
sgRNA knockout: sgHSF1, 100 nM | 100
sgRNA knockout: sgHSF1, 1000 nM | 81.4
sgRNA knockout: sgHSF1, 10000 nM | 95.8
sgRNA knockout: sgHSF2, 10 nM | 97.9
sgRNA knockout: sgHSF2, 100 nM | 104
sgRNA knockout: sgHSF2, 1000 nM | 79.4
sgRNA knockout: sgHSF2, 10000 nM | 83.6
sgRNA knockout: sgKEAP1, 10 nM | 83.5
sgRNA knockout: sgKEAP1, 100 nM | 106.17
sgRNA knockout: sgKEAP1, 1000 nM | 107
sgRNA knockout: sgKEAP1, 10000 nM | 86.9
sgRNA knockout: sgNFE2L2, 10 nM | 91.7
sgRNA knockout: sgNFE2L2, 100 nM | 118
sgRNA knockout: sgNFE2L2, 1000 nM | 105
sgRNA knockout: sgNFE2L2, 10000 nM | 97.4
sgRNA knockout: sgSLC35F2, 10 nM | 101
sgRNA knockout: sgSLC35F2, 100 nM | 107
sgRNA knockout: sgSLC35F2, 1000 nM | 99.9
sgRNA knockout: sgSLC35F2, 10000 nM | 99.5
sgRNA knockout: sgXBP1, 10 nM | 94.1
sgRNA knockout: sgXBP1, 100 nM | 131
sgRNA knockout: sgXBP1, 1000 nM | 105
sgRNA knockout: sgXBP1, 10000 nM | 122
